Measurements as given in the supplement of paper PMC3334620.
Over roughly 33,000 sequences, “E-score (-0.5 to 0.5)” has its median near -0.0014; the highest 2% begin near 0.25. This is one part of the list.

biological target: T1, Cad1 (UniProt P24813); assay: PBM E-score (8-mer binding enrichment) (E-score (-0.5 to 0.5)); higher = stronger / more preferred TF binding; details: protein concentration: 100 nM; construct: GST-full length
T1 sequence: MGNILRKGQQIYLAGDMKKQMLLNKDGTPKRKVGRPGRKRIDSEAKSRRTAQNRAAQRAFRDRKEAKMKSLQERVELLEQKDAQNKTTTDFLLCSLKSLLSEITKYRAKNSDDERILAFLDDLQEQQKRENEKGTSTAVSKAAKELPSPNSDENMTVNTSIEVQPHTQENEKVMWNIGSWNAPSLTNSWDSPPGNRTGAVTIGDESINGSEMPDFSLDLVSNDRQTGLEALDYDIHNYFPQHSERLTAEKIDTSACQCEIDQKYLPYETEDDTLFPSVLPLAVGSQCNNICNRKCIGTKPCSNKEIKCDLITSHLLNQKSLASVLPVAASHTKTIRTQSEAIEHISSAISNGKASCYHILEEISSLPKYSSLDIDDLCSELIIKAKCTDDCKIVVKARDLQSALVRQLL
Experimental: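 Universal 'all 10-mer' protein binding microarrays (Agilent AMADID 015681) probed with GST-tagged S. cerevisiae TFs (full-length or DBD) made by in vitro transcription/translation (PURExpress), about 100-200 nM. Bound TF was detected with fluorescent anti-GST. Each ungapped 8-mer (which stands for itself and its reverse complement) is scored by the PBM enrichment score (E-score), a modified Wilcoxon-Mann-Whitney statistic from -0.5 to +0.5, computed with the Universal PBM Analysis Suite. Scale: above 0.35 generally sequence-specific binding.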

Row | Sequence | PBM E-score
1 | GTCGGCAC | -0.0765
2 | ACGAATGC | 0.113
3 | AGCCCAAT | -0.058
4 | CACGTGAA | 0.0953
5 | AGCACACG | -0.161
6 | AAAATAAC | -0.0367
7 | CGCGGACC | 0.0642
8 | ATATGGCG | -0.0603
9 | AGTGGATC | -0.0132
10 | GGTCAAGA | -0.0653
11 | CAGGGTAA | -0.0474
12 | CAGGATCA | -0.0245
13 | CCTACTAG | -0.0253
14 | TATGGAAA | -0.0179
15 | CGGACATC | 0.0581
16 | CGCCGAAA | 0.108
17 | CTCGATGC | -0.0657
18 | GGCTACTA | -0.0539
19 | GGTACGAC | -0.169
20 | CATCCCAA | -0.085
21 | CAGACAGA | -0.0256
22 | ACGATCAT | -0.0415

Row | Sequence | PBM E-score
23 | CATATCTC | -0.117
24 | GCCGAGAC | 0.043
25 | CACTCCGC | 0.0444
26 | GCACTCCA | -0.0817
27 | ACTTTCAG | 0.00809
28 | GCATTACA | 0.14
29 | CAAAAACC | 0.0948
30 | CTGACAGC | -0.0878
31 | GCTGGGGA | -0.215
32 | CTCGCACA | 0.132
33 | ATGTGTCC | 0.0611
34 | GGCTGGAA | -0.0352
35 | CGTTTTGC | 0.0562
36 | CCAAAGTC | -0.00757
37 | CCCTGCAG | -0.107
38 | CCTTCACG | 0.0821
39 | GGCCAAGA | -0.178
40 | CGTGAGAG | -0.234
41 | AACTAAGT | 0.114
42 | AAGCGATC | 0.183
43 | TAATCCTA | 0.0127
44 | AAACACAC | 0.1

Row | Sequence | PBM E-score
45 | AACATGAT | 0.146
46 | CACGAACC | 0.0169
47 | CGCAAGAG | 0.055
48 | GGGGCTAC | -0.165
49 | GGATAGAC | -0.0809
50 | ACGGTACT | -0.0611
51 | ACCTACAT | 0.00622
52 | TGGTACCA | -0.0895
53 | ACGACATG | 0.0587
54 | CAGCAATC | 0.0251
55 | GGGTTAGA | -0.23
56 | CATCAACG | -0.0243
57 | ACATCACT | 0.0912
58 | GATAGGAC | -0.304
59 | AAGAGTGT | -0.029
60 | CAAGAAGA | -0.0138
61 | AAAACCCG | 0.0798
62 | CTATTCAC | 0.169
63 | CCAGGGAC | -0.232
64 | ATGTCTTC | -0.29
65 | ACCCAAAC | 0.122
66 | ATCCCCAC | -0.0698

Single entries from the entries so far:
PBM E-score, CGTGAGAG reads -0.234
PBM E-score, ATATGGCG reads -0.0603

A different layout for part of the listing above.
Row,Sequence,PBM E-score
52,TGGTACCA,-0.0895
53,ACGACATG,0.0587

The results go on:

Row | Sequence | PBM E-score
67 | CTAGTGAA | -0.0185
68 | ATTCTTTG | 0.0568
69 | ATTAAGGA | 0.07
70 | GCCATTCA | 0.0337
71 | AGCTGCGA | -0.123
72 | GCTGATGA | 0.162
73 | ACCTTCGC | -0.166
74 | CAGCGGAG | 0.0275
75 | GACCGGAC | -0.133
76 | CACGAGTC | -0.0308
77 | CTCTAATC | -0.126
78 | CAAACGAG | -0.0412
79 | ATATTGAA | 0.0967
80 | AATCATAG | 0.0805
81 | CAACAGCA | -0.00801
82 | GTTCGTGA | -0.0799
83 | AAGAGGCC | -0.222
84 | AGCGCCCT | -0.0719
85 | GGTAGACC | -0.201
86 | GTGACCGA | -0.00409
